PubChem BioAssay AID1347423 (Functional Genomics Laboratory (NCATS/FGL), 2020)
Hit rate of the full screen: of about 52,000 sequences, about 210 (0.4%) were called active.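 Rule for the calls: active = gene whose silencing raises cell survival under the drug, median off-target-corrected z-score across its silencing RNAs 2 or more; inactive = the rest.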 The list shows a part of the results.

Experiment: Resistance to Poly (ADP-Ribose) Polymerase inhibitor: Gene Identification via Genome-wide siRNA Screen
Details: mouse BRCA2 R2336H ES cells, olaparib, CellTiter-Glo viability; active compounds read high
In short: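 Genome-wide siRNA screen (3 siRNAs/gene, 20 nM) in mouse ES cells carrying hypomorphic BRCA2 R2336H; olaparib 500 nM added 48 h post-transfection, CellTiter-Glo viability 72 h later. Normalized to plate-median negative control; MAD z-scores, gene median, seed-adjusted.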

Sequence | z-score
GGAGAAAGACAAGGAAAAUTT against Clk3 | inactive: 0.99
CCUCAUUCAGUAUGUCGCATT against 2410024A21Rik | inactive: -0.708
CCCAUCAAUAUCAUAUCCATT against Car7 | inactive: -1.16
GCUGUUGGUUGAGCCUGAATT against Ager | inactive: -1.12
GGGAUGAUGCCAAAUAUAUTT against Kl | inactive: -0.156
GCUGUCUAAUGUCAAUUCUTT against Txnrd1 | inactive: -0.521
GGAAUUAGACAUUCGAACATT against Rnf20 | inactive: 1.25
GCCUCUCCUAUGUUCAGAGTT against 1700060H10Rik | inactive: -0.564
CGUGUACGUCAUGGUAUUUTT against Map2k1 | inactive: -1.19
GGAUACUCUCGAACUCGAUTT against 9230104L09Rik | inactive: 0.474
GCAGCAUGUUCGUCUUUGGTT against Lztr1 | inactive: 0.19
GGAUUGUUCGAGCUAAAAATT against Tnfsf10 | inactive: 0.57
CCUAACACCAGUUGUGUUUTT against Pbx2 | inactive: 0.9
GGAGUUGCUUAUCUAUGAATT against Cpsf1 | inactive: -1.71
CCUAGUCACAAAUUCAGGATT against 2810030E01Rik | inactive: -0.262
CCUAUGUGCGUUCCAAGCATT against Eif5b | inactive: -1.86
GGCAUGAGCUAUCAGGACUTT against 4931407K02Rik | inactive: -0.292
GGAAAUACGAAAAGUUGUATT against Tsn | inactive: 0.551
GGCCACGUUUCUCUUCACCTT against Nyx | inactive: 2.67
GGCCACUAGUAAGAAGAAATT against Usp19 | inactive: 0.463
GCAUCAAAUAGUGGUACCUTT against 2700023B17Rik | inactive: -0.325
CGUAAAACUCUUAGGCAUGTT against Npm1 | active: 2.54
GGAAUUCAAGGAUCGAUCUTT against Tnfrsf19 | inactive: -1.48
GCCAAGAAGUCGGUGGACATT against Cebpa | inactive: -0.624
CCUGCUCUUCCGAUGCUCATT against Chkb | inactive: 1.97
GGUCACGACUCUUCAUGAUTT against Nrl | inactive: -0.0461
GGACUGGUUCUUCAGAUCCTT against 8430408G22Rik | inactive: -0.942

Sequence | z-score
GGCCAUGUGGUUCCUGCUUTT against Scnn1b | inactive: 1.87
CGACUGCAUUCAAACUACUTT against 2900010M23Rik | inactive: -1.03
CGUUCCGAAGCAACAUCGUTT against Slc9a4 | inactive: 0.176
GGAAAAAGCGGAAAUUCAGTT against Pgbd5 | inactive: 1.11
GGAAAUAAGAGAGAGUACATT against Pcbp2 | inactive: 0.477
GGUUUCACCAGCCAAUGUCTT against Ltk | inactive: 0.769
GGGUCAAAAGAUAUUUGUCTT against Pitpn | inactive: 1.39
GGACGUAUCCAUCACUGUUTT against Scn3b | inactive: 0.269
GGUUCAAAUGGUCAAAUUCTT against Pcdha10 | inactive: 0.257
CGUAAUUAAUCAACAGCCATT against Siat8b | inactive: 1.45
GUUACACAGGAGUGUGUAATT against Ear11 | inactive: -0.405
CCAAGAUCGAUCAUUUUGGTT against Gm527 | inactive: 0.539
GCCUAUAAGGAAUAACAAGTT against Cerkl | inactive: -0.969
GGAGCUCAACAAAGACCUGTT against BC023823 | inactive: 0.241
GGCUUCUUCUAUAACCCAATT against Hist1h1a | inactive: 0.507
GGUGGAUCACAGGUUCAUGTT against Rhced | inactive: 0.401
CGCCACACACCAUCACAUUTT against Scap | inactive: -1.97
GCUGGACAUAUGGUCCAAATT against Crsp8 | inactive: -0.291
GGAAGAAUCGGAUCAAGAUTT against Dpep2 | inactive: 2.16
GGAAUGCUGAAGAAUUUUGTT against D630042P16Rik | inactive: 1.14
GGAGAUAGGAUUGCUUGCATT against Fthfsdc1 | inactive: -1.56
GCAGAAAAAUCCUCUUACATT against Sp6 | inactive: 0.569
GUCUUGACAUUAGUACUCATT against Olfr1408 | inactive: 0.217
GGUCAAAUUCUUUGACCUATT against Tesk2 | inactive: 1.44
CCUAGACAAUACUUGCCUGTT against E130016I23Rik | inactive: -1.89
GGUCAAAGUUUGAUGUUAGTT against Tll2 | inactive: -1.04
GGCAAGAGCAUCCUUACAGTT against Fah | inactive: 0.717

Sequence | z-score
CGAGAUUGUGCUGAUAGAGTT against Nptx2 | inactive: 0.175
CCAGCAAUAAUGAAAAGACTT against Samd8 | inactive: -0.473
GCACCAUGAAUGGAGAUGATT against Mrpplf4 | inactive: 0.197
ACUCAGUAGUUAAUGUGGGTT against E130113K08Rik | inactive: 0.513
GGUACUGGAGAAAGUCAAGTT against Pik4cb | inactive: 0.097
CGGGAACAUAUCAGACUAATT against Mcm3ap | inactive: -0.752
GCCUUCGGAAAACGAGAAATT against Atpi | inactive: -0.698
GGACCUUAAUUGCAUCAUUTT against Mapk3 | inactive: 0.829
GGAUUCUGUAGGUCUUCCUTT against Defb19 | inactive: 0.354
CGUAACUUUGUUGAACUACTT against A630050E13Rik | inactive: 2.16
GGUACAUUUCAACCACAUUTT against Lnx1 | inactive: 0.338
CCUCAUGCUAGCCUCAUGATT against Actg | inactive: -2.74
GGAACAGAAUACAAAAAAGTT against Syap1 | inactive: 0.398
GCUGAAAUAGUUGCUAAAUTT against Usp6nl | inactive: 2.64
GCUACGACUCGGAUGAUACTT against Doc2a | inactive: -1.27
GGGAAGGAUGUGCUUAUGATT against Rab38 | inactive: 0.123
GGCCUAAGGACAAUUAUUUTT against 9130022A01Rik | inactive: 0.222
GGAGCAUGCUGGUCUUAGUTT against Bmp10 | inactive: -0.453
GGGUAUGCAAAAAUGGUUGTT against Csnk2a2 | inactive: 1.55
GGGUCACACUUCAUGGCUUTT against Pofut1 | inactive: -2.1
GGGAUUUGCUUCAACCUGGTT against 2810021O14Rik | inactive: -0.218
CCCGGAACUUAACUCUGUATT against LOC381438 | inactive: -0.264
GGACAUGGCUUUAUAACCUTT against 4732421G10Rik | inactive: -0.411
GGAUGUAUAGGUUCAGCUGTT against Dph2l2 | inactive: 1.29
GGAGGAACACAAGAUUUUCTT against Ppp2r5c | inactive: 0.463
GGUAAAGAUGAAAAUGUGUTT against Fut9 | inactive: -0.027
GGUUCAACACGAUGUUCGATT against Nr1i2 | inactive: 0.927

Taken from the listing (4 entries):
Sequence | z-score
CCAAGAUCGAUCAUUUUGGTT against Gm527 | inactive: 0.539
GCCUAUAAGGAAUAACAAGTT against Cerkl | inactive: -0.969
GGAGCUCAACAAAGACCUGTT against BC023823 | inactive: 0.241
GGCUUCUUCUAUAACCCAATT against Hist1h1a | inactive: 0.507

Continuation.

Sequence | z-score
CCUUCAACACCAGUUUGGGTT against Olfr1393 | inactive: -0.27
GAGAAAGAUAAUUACCUGGTT against Tnfrsf22 | inactive: 1.28
GGAUGAUUCUGGGUUACAGTT against Mum1 | inactive: -1.12
CGAAGAGUACUUUUUUAGUTT against 4933417K05Rik | inactive: 0.567
GCAUGUCCACGUUAGAAUCTT against Fbxw7 | inactive: 1.29
GCUAGAGUGACUAUUUUACTT against Acta2 | inactive: 1.44
GCAAACCUUUGUUCAUUCCTT against Prnp | inactive: 0.554
GGAAACCUAUUUCAUAUAGTT against Pik3cg | inactive: 0.662
GCCAUAUCGCUAAAAUUCUTT against Hoxa10 | inactive: 1.1
GGGAAACAUUUGAAAGCCUTT against Mpp4 | inactive: 0.512
GGAAUACAUCGAGUAUCUCTT against Xab2 | inactive: -0.79
GGCUAUGGAGAGAGUAUGCTT against 4930579E17Rik | inactive: -1.35
ACCUCAAGACAGUGCAAAUTT against Hist1h2bc | inactive: 0.0208
GCUGGUGCAUUACUGAGGUTT against Olfr69 | inactive: -0.221
GGCCACUCGUUUUCUAAUUTT against 2010109K11Rik | inactive: -1.53
GGAAGCUUUGGGAAACAGUTT against Bmp2 | inactive: -0.527
GCUCAUUGAGUACAAGACCTT against Ndufs2 | inactive: -0.0275
UCACAGUGCUUAUCAUUGUTT against Olfr506 | inactive: 0.521
GCACUACGAUGACUUCCUGTT against Poll | inactive: -0.251
GGGAAAUGGAAAGCAUUCUTT against Olfr374 | inactive: 0.248
CCGACUGGGCUCUUUUUACTT against Dbnl | inactive: 0.562
GUCAGAGCUUGAGGAGUUCTT against 0610033H09Rik | inactive: 1.96
GCUAUACAUCAUGGUAUCCTT against Dlx1 | inactive: -2.15
GGUAAAGACAAGAUUAAAGTT against Cyp39a1 | inactive: 0.269

Exported comma-delimited: part of the list above.
Sequence,z-score
GGUGGAUCACAGGUUCAUGTT against Rhced,inactive: 0.401
CGCCACACACCAUCACAUUTT against Scap,inactive: -1.97
GCUGGACAUAUGGUCCAAATT against Crsp8,inactive: -0.291
GGAAGAAUCGGAUCAAGAUTT against Dpep2,inactive: 2.16
